This passage reports binding results from article doi:10.1101/816959.

No constants are given. Whether binding was seen depends on the method and setting. Where a sequence is shown, tags or fusion partners need not be part of it.

The assay deals with Caulobacter crescentus Ct-ParB-(His)6 (50 amino acid C-terminally truncated ParB) (Caulobacter crescentus) (UniProt B8GW30). The experiment in a line: crystal structure.

B1: Caulobacter crescentus Ct-ParB-(His)6 (50 amino acid C-terminally truncated ParB) (domain or fragment, UniProt B8GW30 11-254)
chain: MSEGRRGLGRGLSALLGEVDAAPAQAPGEQLGGSREAPIEILQRNPDQPRRTFREEDLEDLSNSIREKGVLQPILVRPSPDTAGEYQIVAGERRWRAAQRAGLKTVPIMVRELDDLAVLEIGIIENVQRADLNVLEEALSYKVLMEKFERTQENIAQTIGKSRSHVANTMRLLALPDEVQSYLVSGELTAGHARAIAAAADPVALAKQIIEGGLSVRETEALARKAPNLSAGKSKGGRPPRVKD
On to B1, for which the binding entry was “no binding”.
